# Assay results as given in the supplement of paper PMC7661543.
# ± gives the standard deviation of the averaged measurements. Differences between knockout arms are mostly noise.
# Test system: ZR-75-1
# Assay: relative cell number vs DMSO control (72 h) (% of DMSO); higher = less growth inhibition (more cells)
# Procedure: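 QMAP-Seq: a pool of 5 breast cancer cell lines (ZR-75-1, SKBR3, HCC-38, MDA-MB-231, BT-20), each carrying 12 doxycycline-inducible Cas9 sgRNA perturbations (11 knockouts plus non-targeting sgNT), was treated with compounds for 72 h at four 10-fold doses (10 nM-10 uM or 1 nM-1 uM range). Barcodes were amplified and sequenced, and cell number was interpolated from 293T spike-in standard curves. The result is expressed as % of the median of DMSO wells. Two biological replicates.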
# [1] = sgRNA knockout: sgATF3, 1000 nM
# [2] = sgRNA knockout: sgATF3, 10000 nM
# [3] = sgRNA knockout: sgATF4, 1000 nM
# [4] = sgRNA knockout: sgATF4, 10000 nM
# [5] = sgRNA knockout: sgATF6, 1000 nM
# [6] = sgRNA knockout: sgATF6, 10000 nM
# [7] = sgRNA knockout: sgATG7, 1000 nM
# [8] = sgRNA knockout: sgATG7, 10000 nM
# [9] = sgRNA knockout: sgERN1, 1000 nM
# [10] = sgRNA knockout: sgERN1, 10000 nM
# [11] = sgRNA knockout: sgHSF2, 1000 nM
# [12] = sgRNA knockout: sgHSF2, 10000 nM
# [13] = sgRNA knockout: sgNFE2L2, 10 nM
# [14] = sgRNA knockout: sgNFE2L2, 100 nM
# [15] = sgRNA knockout: sgNFE2L2, 1000 nM
# [16] = sgRNA knockout: sgNFE2L2, 10000 nM
# [17] = sgRNA knockout: sgSLC35F2, 10 nM
# [18] = sgRNA knockout: sgSLC35F2, 100 nM
# [19] = sgRNA knockout: sgSLC35F2, 1000 nM
# [20] = sgRNA knockout: sgSLC35F2, 10000 nM
# [21] = sgRNA knockout: sgXBP1, 1000 nM
# [22] = sgRNA knockout: sgXBP1, 10000 nM
Structure (SMILES),"relative cell number (sgRNA knockout: sgATF3, 10 nM)","relative cell number (sgRNA knockout: sgATF3, 100 nM)",relative cell number [1],relative cell number [2],"relative cell number (sgRNA knockout: sgATF4, 10 nM)","relative cell number (sgRNA knockout: sgATF4, 100 nM)",relative cell number [3],relative cell number [4],"relative cell number (sgRNA knockout: sgATF6, 10 nM)","relative cell number (sgRNA knockout: sgATF6, 100 nM)",relative cell number [5],relative cell number [6],"relative cell number (sgRNA knockout: sgATG7, 10 nM)","relative cell number (sgRNA knockout: sgATG7, 100 nM)",relative cell number [7],relative cell number [8],"relative cell number (sgRNA knockout: sgERN1, 10 nM)","relative cell number (sgRNA knockout: sgERN1, 100 nM)",relative cell number [9],relative cell number [10],"relative cell number (sgRNA knockout: sgHSF2, 10 nM)","relative cell number (sgRNA knockout: sgHSF2, 100 nM)",relative cell number [11],relative cell number [12],relative cell number [13],relative cell number [14],relative cell number [15],relative cell number [16],relative cell number [17],relative cell number [18],relative cell number [19],relative cell number [20],"relative cell number (sgRNA knockout: sgXBP1, 10 nM)","relative cell number (sgRNA knockout: sgXBP1, 100 nM)",relative cell number [21],relative cell number [22]
OCCn1cc(-c2ccc3c(c2)CC/C3=N\O)c(-c2ccncc2)n1 [GDC0879],120 ± 6,102 ± 26,133 ± 32,138 ± 11,103 ± 46,118 ± 23,136 ± 22,164 ± 32,79.9 ± 17,77.5 ± 17,157 ± 44,120 ± 22,114 ± 29,84.7 ± 3.8,101 ± 52,130 ± 30,91.1 ± 1,139 ± 20,120 ± 13,115 ± 6,121.1 ± 0.8,118 ± 9.5,126 ± 14,106 ± 3.8,125 ± 42,145 ± 13,145 ± 2.3,145 ± 15,91.2 ± 23,116 ± 7.9,135.97 ± 0.09,88.3 ± 17,98.5 ± 24,119 ± 19,123 ± 11,110 ± 9.6
C[C@@H]1CN(CC(=O)Nc2ccc3c(c2)Cc2cccc(-c4cc(=O)cc(N5CCOCC5)o4)c2S3)C[C@H](C)O1,91.1 ± 4.3,97.5 ± 18,94.6 ± 3.5,48.4 ± 2.8,100 ± 3.4,81.4 ± 34,102 ± 20,33.4 ± 11,108 ± 52,95.6 ± 14,108.8 ± 0.69,32.4 ± 15,113 ± 31,119 ± 7.2,120 ± 30,48.5 ± 1.9,76.7 ± 24,101 ± 12,105 ± 15,48.6 ± 5.8,107 ± 30,100 ± 6.5,103 ± 14,51.3 ± 13,106 ± 16,102 ± 21,99 ± 35,37 ± 16,106 ± 4.3,60.6 ± 19,111 ± 14,37.5 ± 3.2,123 ± 24,140 ± 35,101 ± 7.1,44.8 ± 11
Cc1cc2c(F)c(Oc3ncnn4cc(OC[C@@H](C)O)c(C)c34)ccc2[nH]1 [Brivanib],83.9 ± 10,118 ± 21,85 ± 1.2,38.7 ± 8.9,120 ± 30,64.2 ± 3.4,96.9 ± 36,63.6 ± 1.6,133 ± 37,118 ± 88,92.35 ± 0.61,41.1 ± 15,118 ± 29,67 ± 13,84.3 ± 22,48.2 ± 9,106.2 ± 0.89,105 ± 6.9,86.1 ± 43,52.4 ± 21,89.7 ± 25,100 ± 55,88.6 ± 13,54.9 ± 14,93.6 ± 8.9,110 ± 23,94.2 ± 8.1,47.28 ± 0.29,58.1 ± 5.8,106 ± 22,95.5 ± 42,40.4 ± 11,103 ± 3.1,106 ± 14,99.9 ± 13,54.4 ± 7.5
O=C(O)CC[C@H]1CC[C@@](c2cc(F)ccc2F)(S(=O)(=O)c2ccc(Cl)cc2)CC1 [MK0752],139 ± 67,125 ± 12,124 ± 10,120 ± 34,165 ± 49,111.9 ± 1,133 ± 24,130 ± 4.9,108 ± 18,112 ± 9.9,132 ± 9,105 ± 24,137 ± 74,103 ± 33,119 ± 5.5,101 ± 19,120 ± 33,112 ± 22,112 ± 5,96.98 ± 0.19,141 ± 43,108 ± 7.7,126 ± 1.7,117 ± 27,147 ± 28,131 ± 14,130 ± 48,108 ± 1.6,172 ± 29,131 ± 36,123 ± 13,156 ± 43,119 ± 44,110 ± 1.9,124 ± 2.7,92.6 ± 18
Cn1c(CCCC(=O)O)nc2cc(N(CCCl)CCCl)ccc21 [Bendamustine],103 ± 7,87.3 ± 1.4,72.9 ± 9.9,137 ± 11,101 ± 14,105 ± 60,115 ± 14,165 ± 57,108 ± 3.4,72 ± 41,78.5 ± 6.8,93.2 ± 25,69.3 ± 32,86 ± 38,101 ± 10,106 ± 29,82.9 ± 19,110 ± 41,85.49 ± 0.77,95.2 ± 13,80.2 ± 24,83.4 ± 2,106 ± 34,84.9 ± 2.3,104 ± 58,119.7 ± 0.91,110 ± 2.5,107 ± 34,114 ± 2.9,123 ± 82,90 ± 26,133 ± 40,89.3 ± 36,105 ± 5.3,108 ± 2.9,88 ± 10
CC1(C)CCC(c2ccc(Cl)cc2)=C(CN2CCN(c3ccc(C(=O)NS(=O)(=O)c4ccc(N[C@H](CCN5CCOCC5)CSc5ccccc5)c(S(=O)(=O)C(F)(F)F)c4)cc3)CC2)C1 [Navitoclax],106 ± 31,117 ± 29,102 ± 19,82.3 ± 9.3,116 ± 66,149 ± 49,143 ± 26,76.3 ± 34,91 ± 18,129 ± 28,105 ± 18,67.2 ± 42,84 ± 41,160 ± 53,78.2 ± 46,80.3 ± 25,86.6 ± 13,90.8 ± 0.7,87.6 ± 15,88.8 ± 27,96.3 ± 16,128 ± 20,92 ± 8.8,81.4 ± 3.3,94.2 ± 7.1,105 ± 12,117 ± 32,89.71 ± 0.54,71.8 ± 34,141 ± 40,72.5 ± 2,52.7 ± 6.5,97.48 ± 0.81,93.91 ± 0.79,111 ± 10,78.8 ± 15
